Our source for the binding values is article PMC10493204.

Chains of the proteins cited; added tags and fusions are not shown. Lines headed by an entry give the natural chain unless they say otherwise; changes in a name come on top.
UniProt Q99N13: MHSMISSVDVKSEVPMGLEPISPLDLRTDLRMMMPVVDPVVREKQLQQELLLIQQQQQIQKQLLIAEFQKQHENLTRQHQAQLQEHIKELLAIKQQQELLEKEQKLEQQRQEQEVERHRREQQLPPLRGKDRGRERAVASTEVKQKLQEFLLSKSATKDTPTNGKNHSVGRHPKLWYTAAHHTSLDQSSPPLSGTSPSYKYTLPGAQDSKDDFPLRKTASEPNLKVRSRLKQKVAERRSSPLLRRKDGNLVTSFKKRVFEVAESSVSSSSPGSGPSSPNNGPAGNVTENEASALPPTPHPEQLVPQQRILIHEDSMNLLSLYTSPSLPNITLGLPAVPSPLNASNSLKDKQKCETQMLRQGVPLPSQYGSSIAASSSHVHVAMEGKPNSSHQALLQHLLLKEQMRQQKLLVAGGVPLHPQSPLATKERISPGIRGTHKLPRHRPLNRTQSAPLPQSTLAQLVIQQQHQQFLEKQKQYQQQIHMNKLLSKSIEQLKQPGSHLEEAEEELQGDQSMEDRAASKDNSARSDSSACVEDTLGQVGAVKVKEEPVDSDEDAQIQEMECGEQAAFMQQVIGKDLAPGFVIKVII
UniProt P07356: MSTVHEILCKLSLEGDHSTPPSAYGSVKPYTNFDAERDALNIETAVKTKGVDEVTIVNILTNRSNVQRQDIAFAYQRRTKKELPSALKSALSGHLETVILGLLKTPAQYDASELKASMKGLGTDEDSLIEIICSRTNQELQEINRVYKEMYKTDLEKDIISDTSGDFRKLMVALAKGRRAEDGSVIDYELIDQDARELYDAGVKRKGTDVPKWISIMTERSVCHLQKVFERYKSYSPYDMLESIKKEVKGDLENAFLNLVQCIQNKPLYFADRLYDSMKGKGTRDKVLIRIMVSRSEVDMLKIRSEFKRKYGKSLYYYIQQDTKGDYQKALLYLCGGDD

This experiment has as its target Histone deacetylase 9 (mouse (endogenous in hippocampus)) (UniProt Q99N13). The experiment is described as follows: co-IP; 400 ug hippocampal tissue lysate of CRS mice, antibody overnight at 4 C, Protein A/G PLUS-Agarose 2 h at 4 C, three washes with cold lysis buffer, western blot. (In western blotting, separated proteins are transferred to a membrane and probed.)

Results are given in words; binding and its absence hold for the method and conditions named. Binding seen in cells or lysates may run through a third protein. Binding calls can cover weak binding; strength is not graded here.

Annexin A2 (from UniProt P07356 1-339): the binding result is given as “binds”.
